One experiment concerns IL-17A. Description: IL-17 release from differentiated primary human T-cells (IL-17A HTRF assay). Conditions: read-out: hIL17 IC50; primary human CD4+ T cells differentiated into Th17 cells, 45-hour incubation, IL-17A in supernatant. How it is done:
C. IL-17 Release from Differentiated Primary Human T-Cells and Cell Viability
Primary human cryopreserved CD4+ T Cells (Lonza) were thawed according to the manufacturer's recommendations and plated either in Lymphocyte Growth Medium-3 (LGM-3) or X-VIVO 20 media (Lonza) in 96-well tissue culture plates at a density of ˜2×10^5 cells per well, and allowed to recover for approximately 4 hours at 37° C. with 5% CO2 in a humidified atmosphere. After the recovery step, DMSO (vehicle) or test compound at doses ranging from 2 to 500 nM or 4 to 1000 nM in a three-fold dilution series was added to the cells. Three replicate wells were tested for each treatment condition. […] Cell viability was assessed in the original plate using the CyQuant Direct Assay (Life Technologies). […] Fluorescence was read on a SpectraMax M2e spectrophotometer at 480 nm (excitation) and 535 nm (emission) wavelengths. […] The concentration of IL-17A in the supernatant was measured using the Homogeneous Time-Resolved Fluorescence (HTRF) assay (Cisbio Bioassays) according to the manufacturer's protocol. […] Data were analyzed using GraphPad Prism (GraphPad Software, La Jolla California USA). […] The IC50 values for compound-mediated reduction in IL-17A levels and cell viability were determined by non-linear regression analysis using the log(inhibitor) vs. normalized response with variable slope equation. […]
On the technique in general: TR-FRET usually uses a lanthanide donor and a delayed reading to cut background.

Chains of the proteins cited; added tags and fusions are not shown. Residues count along the entry.
UniProt P51449, 269-508 limits assumed: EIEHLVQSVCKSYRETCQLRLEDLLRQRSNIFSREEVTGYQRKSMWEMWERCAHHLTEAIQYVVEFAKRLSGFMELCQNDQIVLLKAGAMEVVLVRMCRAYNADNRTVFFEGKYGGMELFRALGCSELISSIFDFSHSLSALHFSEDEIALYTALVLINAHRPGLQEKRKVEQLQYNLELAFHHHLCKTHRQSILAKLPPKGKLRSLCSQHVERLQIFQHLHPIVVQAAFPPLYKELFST

Experiment [1] deals with Human RAR-related Orphan Receptor Gamma (RORγ) (Homo sapiens, UniProt P51449). Description: RORγ assay (GAL4-RORγ hybrid luciferase reporter, Indigo Biosciences). As to conditions: read-out: RORγ IC50; inverse-agonist activity, GAL4-RORγ reporter cells, 23 hours. The source says:
B. RORγ Assay and Cell Viability
The RORγ assay system was purchased from Indigo Biosciences. This nuclear receptor assay utilizes a human cell line that has been engineered to express a hybrid form of the Human RAR-related Orphan Receptor Gamma (RORγ) at high levels. The N-terminal DNA binding domain (DBD) of the native RORγ receptor was substituted with the yeast GAL4-DBD to generate the GAL4-RORγ hybrid nuclear receptor. The reporter cell line is transfected with a plasmid that encodes the beetle luciferase gene under the control of the GAL4 upstream activating sequence (UAS). GAL4 binds to the UAS and increases transcription of downstream target genes. The GAL4-RORγ hybrid is constitutively active; therefore, the principle application of this reporter assay system is to screen test compounds to quantify inverse-agonist activities against human RORγ. Because the ligand binding domain (LBD) of RORγ is identical to the LBD of RORγt, this assay is an accurate surrogate for evaluating activity of experimental ligands against RORγt. […] After this incubation, luciferin was added to the wells and luciferase activity was determined by measuring the luminescence signal using a BMG Pherastar microplate reader. Viability was determined using the Live Cell Multiplex Assay (Indigo Biosciences). […] Data were analyzed using GraphPad Prism version 6.00 for Windows (GraphPad Software, La Jolla Calif. USA). […]
In general terms: A reporter such as luciferase makes a cellular process visible.

In experiment [2] the test system is Nrf2 transcription factor. Description: AREc32 luciferase reporter assay. Conditions: AREc32 cells, 19 hours; concentration required to increase GST ARE luciferase reporter activity by 2-fold. The source says: A. AREc32 Luciferase Reporter Assay
The AREc32 luciferase reporter assay allows for quantitative assessment of the endogenous activity of the Nrt2 transcription factor in cultured mammalian cells. AREc32 cells are derived from MCF-7 human breast carcinoma cells that were stably transfected with a reporter construct that contains the firefly luciferase gene located downstream of eight copies of the rat GSTA2 antioxidant response element (ARE) sequence (Wang et al., 2006; Concept Life Sciences Integrated Discovery and Development Services Ltd (CLSIDDS)). Active Nrf2 binds to the ARE sequences and increases expression of the firefly luciferase gene. To assess the Nrf2-activating potential of the test compounds, AREc32 cells were plated in black […] plates at a density of 20,000 cells per well in triplicate in DMEM+10% FBS+0.8 mg/mL Geneticin and incubated at 37° C. with 5% CO2 in a humidified atmosphere. […] Luciferase activity was determined using the ONE-Glo Luciferase assay (Promega). The luminescence signal was measured on a BMG Pherastar microplate reader. The mean luminescence value from test compound-treated wells was normalized to that from DMSO-treated wells and was represented as fold-induction. Data were analyzed using GraphPad Prism version 6.00 for Windows, GraphPad Software, La Jolla Calif. […]

pIC50: −log10 of the molar value. The structures given here were assigned with low confidence; some may be wrong. A value given as a limit tells only on which side of the number the result lay.

The term pIC50 denotes the negative decadic logarithm of the IC50, by convention in mol/L.

For `Cc1cc(-c2ccc(-n3nc(-c4ccccc4F)c4c3[C@]3(C)CC(C#N)=C(O)[C@H](C)[C@H]3CC4)cc2)cnn1`, the pIC50 is 6.33 in the experiment on IL-17A and 6.53 in experiment [1].
Consider `C[C@H]1C(O)=C(C#N)C[C@@]2(C)c3c(c(-c4ccncn4)nn3-c3ccc(-c4cncc(F)c4)cc3)CC[C@H]12`, for which the pIC50 was less than 6.30 in the experiment on IL-17A and 6.20 in experiment [1]. The “NRF2 ARE 2-Fold (EC2×)” value in experiment [2] is more than 2.000 µM.

These data come from patent US11993574B2, “Pyrazole and imidazole compounds for inhibition of IL-17 and RORgamma” (REATA PHARMACEUTICALS, INC., priority 2018, dated 2024).
